Drawing on publication PMC8024281, this text covers binding for one substance.

Amino acid sequences for entries named in this document (tags omitted).
UniProt P42772: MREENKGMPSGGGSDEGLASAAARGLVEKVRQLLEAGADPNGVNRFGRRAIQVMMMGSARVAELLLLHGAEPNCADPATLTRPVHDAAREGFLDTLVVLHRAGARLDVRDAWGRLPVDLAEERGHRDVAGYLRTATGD
UniProt P42771: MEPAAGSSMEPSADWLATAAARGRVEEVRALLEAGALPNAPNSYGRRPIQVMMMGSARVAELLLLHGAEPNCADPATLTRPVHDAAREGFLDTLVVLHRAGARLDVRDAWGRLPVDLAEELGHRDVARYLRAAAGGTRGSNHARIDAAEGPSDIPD
UniProt P06733: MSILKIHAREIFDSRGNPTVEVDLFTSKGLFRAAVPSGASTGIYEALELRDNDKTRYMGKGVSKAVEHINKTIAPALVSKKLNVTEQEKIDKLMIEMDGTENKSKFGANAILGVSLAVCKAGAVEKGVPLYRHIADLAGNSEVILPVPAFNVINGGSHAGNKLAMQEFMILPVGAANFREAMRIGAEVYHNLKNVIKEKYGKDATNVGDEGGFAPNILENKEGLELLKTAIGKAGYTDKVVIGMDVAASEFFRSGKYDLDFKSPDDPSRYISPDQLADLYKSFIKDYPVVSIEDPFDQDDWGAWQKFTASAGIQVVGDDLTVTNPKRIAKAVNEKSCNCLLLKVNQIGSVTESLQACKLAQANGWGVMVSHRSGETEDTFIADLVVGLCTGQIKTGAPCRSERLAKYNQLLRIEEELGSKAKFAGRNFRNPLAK

Results are given in words; binding and its absence hold for the method and conditions named. Binding seen in cells or lysates may run through a third protein. These calls come from enrichment with a bait or labelling near it, and not all partners need be listed. For some assays here: A no says only that the protein was not detected with the bait.

In assay [1] the target is Histidine-tagged p15^INK4B (wild type), E. coli-produced (human) (UniProt P42772). The assay is described as follows: affinity purification with mass spectrometry; E. coli-produced bait on Ni-NTA column incubated with total proteins of parental UMUC3; imidazole eluate resolved by two-dimensional electrophoresis; spots absent from the control and the p16 fractions analysed by mass spectrometry; only the target purified.

The target of assay [2] is Histidine-tagged p16^INK4A (wild type), E. coli-produced (human) (UniProt P42771). The assay is described as above.

For the substance “enolase-1 (endogenous, UMUC3) (from UniProt P06733 1-434) (enzyme)”, the binding entry is reported as “binds” in assay [1] and “no binding” in assay [2].
